In PubChem BioAssay AID248 (DTP/NCI, 2004):
The list does not hold the whole screen: it gathers some chemical classes. Not every dose and run of a compound is shown. T/C is the treated group as % of the vehicle group. Some entries give survivors of the animals treated and no T/C: the source files T/C as zero there, which appears to mark a toxic dose or a test without result, not a measured value. Some doses without a T/C left all or most animals alive at the check, yet need not have been tolerated: survival well below the control is almost never listed, so the zero probably covers shortened survival too. Counts of survivors are from the toxicity check (mostly the fifth day) where no day follows; animals may have died later. Schedule codes are those of the source, taken here to give the interval after Q, in days (D) or hours (H), and the number of doses after X. For survival time, this PubChem deposit counts one and a half times the control or more as active, and values a quarter to a half above the control carry no call in these data; other NCI protocols may use other cut-offs. Some T/C values carry the count of animals alive at the toxicity check (mostly the fifth day); without a count or a note in brackets, all were alive then. Some entries were tested several times; the values are given in rising order. Some schedule codes hold Z or #, which are not explained here. Some entries show no survivor count and are marked so; the dose need not have been tolerated.

System: L1210 leukemia ip in BDF1 mice, survival T/C
Test: NCI In Vivo Anticancer Drug Screen. Data for tumor model L1210 Leukemia (intraperitoneal) in B6D2F1 (BDF1) mice
Details: T/C endpoint: mean survival time, higher T/C = longer survival
[1] = dose: 12.5 mg/kg/injection, schedule: Q04DX003 (ip), vehicle: Klucel (hydroxypropylcellulose) (HPC)
[2] = dose: 100.0 mg/kg/injection, schedule: Q04DX003 (ip), vehicle: Klucel (hydroxypropylcellulose) (HPC)
[3] = dose: 200.0 mg/kg/injection, schedule: Q04DX003 (ip), vehicle: Klucel (hydroxypropylcellulose) (HPC)
[4] = dose: 400.0 mg/kg/injection, schedule: Q04DX003 (ip), vehicle: Klucel (hydroxypropylcellulose) (HPC)
[5] = dose: 100.0 mg/kg/injection, schedule: Q01DX001 (ip), vehicle: saline
[6] = dose: 200.0 mg/kg/injection, schedule: Q01DX001 (ip), vehicle: saline
[7] = dose: 400.0 mg/kg/injection, schedule: Q01DX001 (ip), vehicle: saline
[8] = dose: 100.0 mg/kg/injection, schedule: Q04DX003 (ip), vehicle: saline
[9] = dose: 200.0 mg/kg/injection, schedule: Q04DX003 (ip), vehicle: saline
[10] = dose: 400.0 mg/kg/injection, schedule: Q04DX003 (ip), vehicle: saline
[11] = dose: 132.0 mg/kg/injection, schedule: Q01DX001 (ip), vehicle: saline

With ClCCN1Cc2ccccc2Cc2ccccc2C1 the T/C (dose: 3.12 mg/kg/injection, schedule: Q04DX003 (ip), vehicle: Klucel (hydroxypropylcellulose) (HPC)) was 92 % of control, the T/C (dose: 6.25 mg/kg/injection, schedule: Q04DX003 (ip), vehicle: Klucel (hydroxypropylcellulose) (HPC)) was 92 % of control and the T/C [1] was 92 % of control. The survivor count [2] was 0 of 6, the survivor count [3] was 0 of 6 and the survivor count [4] was 0 of 6.
With O=C(SCCCl)c1ccccc1 the T/C (dose: 5.0 mg/kg/injection, schedule: Q01DX Z (ip), vehicle: saline) was 94 % of control, the T/C (dose: 10.0 mg/kg/injection, schedule: Q01DX Z (ip), vehicle: saline) was 89 % of control and the T/C (dose: 20.0 mg/kg/injection, schedule: Q01DX Z (ip), vehicle: saline) was 101 % of control. The T/C (dose: 40.0 mg/kg/injection, schedule: Q01DX010 (ip), vehicle: saline) was 90 % of control, the T/C (dose: 40.0 mg/kg/injection, schedule: Q01DX Z (ip), vehicle: saline) was 92 % of control and the T/C (dose: 80.0 mg/kg/injection, schedule: Q01DX010 (ip), vehicle: saline) was 90 % of control. The survivor count (dose: 160.0 mg/kg/injection, schedule: Q01DX010 (ip), vehicle: saline) was 6 of 6 and the T/C (dose: 320.0 mg/kg/injection, schedule: Q01DX010 (ip), vehicle: saline) was 98 % of control.
With O=[N+]([O-])OCC(O[N+](=O)[O-])C(CO[N+](=O)[O-])O[N+](=O)[O-] (stereo not given) the T/C (dose: 50.0 mg/kg/injection, schedule: Q01DX001 (ip), vehicle: saline) was 92 % of control [survivor count not shown], the T/C [5] was 100 % of control [survivor count not shown] and the T/C [6] was 96 % of control [survivor count not shown]. For the same molecule, the T/C [7] was 95 % of control [survivor count not shown].
In the case of COP1OCC(C)(C)O1 (stereo not given), the T/C [5] is reported as 96 % of control, the T/C [6] is reported as 94 % of control and the T/C [7] is reported as 91 % of control.
In the case of O=C1C(Cl)=C(NCCBr)C(=O)C(Cl)=C1NCCBr, the T/C [1] is reported as 92 % of control, the T/C (dose: 25.0 mg/kg/injection, schedule: Q04DX003 (ip), vehicle: Klucel (hydroxypropylcellulose) (HPC)) is reported as 98 % of control and the T/C (dose: 50.0 mg/kg/injection, schedule: Q04DX003 (ip), vehicle: Klucel (hydroxypropylcellulose) (HPC)) is reported as 103 % of control. For the same molecule, the T/C (dose: 100.0 mg/kg/injection, schedule: Q01DX009 (ip), vehicle: Klucel (hydroxypropylcellulose) (HPC)) was 87 % of control, the T/C [2] was 92 % of control and the T/C (dose: 200.0 mg/kg/injection, schedule: Q01DX009 (ip), vehicle: Klucel (hydroxypropylcellulose) (HPC)) was 93 % of control. The T/C [3] was 95 % of control, the T/C (dose: 400.0 mg/kg/injection, schedule: Q01DX009 (ip), vehicle: Klucel (hydroxypropylcellulose) (HPC)) was 90 % of control and the T/C [4] was 97 % of control.
In the case of CCOP(O)OCC.[Hg], the T/C [8] is reported as 93 % of control, the T/C [9] is reported as 96 % of control and the T/C [10] is reported as 90 % of control [5 of 6 alive].
With O=[N+]([O-])Nc1ccc(N[N+](=O)[O-])nn1 the T/C [5] was 93 % of control [survivor count not shown], the T/C [6] was 102 % of control [survivor count not shown] and the T/C [7] was 98 % of control [survivor count not shown].
COP(OC)c1ccc(C)cc1 was tested, and the T/C [8] was 106 % of control, the T/C [9] was 98 % of control and the T/C [10] was 106 % of control.
BrC1CN2CC(Br)CN2C1 was tested, and the T/C (dose: 10.0 mg/kg/injection, schedule: Q01DX001 (ip), vehicle: saline) was 98 % of control, the T/C (dose: 20.0 mg/kg/injection, schedule: Q01DX001 (ip), vehicle: saline) was 101 % of control and the T/C (dose: 40.0 mg/kg/injection, schedule: Q01DX001 (ip), vehicle: saline) was 107 % of control. The survivor count (dose: 80.0 mg/kg/injection, schedule: Q01DX001 (ip), vehicle: saline) was 2 of 4.
In the case of Cc1cc(N(CCCl)CCCl)c2ccccc2c1, the T/C (dose: 0.75 mg/kg/injection, schedule: Q01DX001 (ip), vehicle: saline) is reported as 93 % of control, the T/C (dose: 1.5 mg/kg/injection, schedule: Q01DX001 (ip), vehicle: saline) is reported as 95 % of control and the T/C (dose: 3.0 mg/kg/injection, schedule: Q01DX001 (ip), vehicle: saline) is reported as 98 % of control. The T/C (dose: 6.0 mg/kg/injection, schedule: Q01DX001 (ip), vehicle: saline) was 106 % of control, the T/C (dose: 11.0 mg/kg/injection, schedule: Q01DX001 (ip), vehicle: Klucel (hydroxypropylcellulose) (HPC)) was 124 % of control and the T/C (dose: 19.0 mg/kg/injection, schedule: Q01DX009 (ip), vehicle: saline) was 123 % of control. The T/C (dose: 22.0 mg/kg/injection, schedule: Q01DX001 (ip), vehicle: Klucel (hydroxypropylcellulose) (HPC)) was 112 % of control, the T/C (dose: 29.0 mg/kg/injection, schedule: Q01DX009 (ip), vehicle: saline) was 146 % of control and the T/C (dose: 38.0 mg/kg/injection, schedule: Q01DX001 (ip), vehicle: saline) was 115 % of control. The T/C (dose: 44.0 mg/kg/injection, schedule: Q01DX001 (ip), vehicle: Klucel (hydroxypropylcellulose) (HPC)) was 124 % of control, the T/C (dose: 44.0 mg/kg/injection, schedule: Q01DX009 (ip), vehicle: saline) was 109 % of control [5 of 6 alive] and the T/C (dose: 58.0 mg/kg/injection, schedule: Q01DX001 (ip), vehicle: saline) was 120 % of control. For the same molecule, the survivor count (dose: 66.0 mg/kg/injection, schedule: Q01DX009 (ip), vehicle: carboxymethylcellulose (CMC)) was 6 of 6, the T/C (dose: 66.0 mg/kg/injection, schedule: Q01DX009 (ip), vehicle: saline) was 89 % of control and the T/C (dose: 75.0 mg/kg/injection, schedule: Q01DX001 (ip), vehicle: carboxymethylcellulose (CMC)) was 120 % of control. The T/C (dose: 88.0 mg/kg/injection, schedule: Q01DX001 (ip), vehicle: Klucel (hydroxypropylcellulose) (HPC)) was 135 % of control [5 of 6 alive], the T/C (dose: 88.0 mg/kg/injection, schedule: Q01DX001 (ip), vehicle: carboxymethylcellulose (CMC)) was 115 % of control and the T/C (dose: 88.0 mg/kg/injection, schedule: Q01DX001 (ip), vehicle: saline) was 126, 143, 151 % of control. The survivor count (dose: 100.0 mg/kg/injection, schedule: Q01DX009 (ip), vehicle: carboxymethylcellulose (CMC)) was 6 of 6, the survivor count (dose: 100.0 mg/kg/injection, schedule: Q01DX009 (ip), vehicle: saline) was 4 of 6 and the T/C (dose: 132.0 mg/kg/injection, schedule: Q01DX001 (ip), vehicle: carboxymethylcellulose (CMC)) was 119 % of control. For the same molecule, the T/C [11] was 158 % of control, the survivor count [11] was 6 of 6 and the T/C (dose: 150.0 mg/kg/injection, schedule: Q01DX001 (ip), vehicle: carboxymethylcellulose (CMC)) was 129 % of control. The survivor count (dose: 150.0 mg/kg/injection, schedule: Q01DX009 (ip), vehicle: carboxymethylcellulose (CMC)) was 6 of 6, the survivor count (dose: 150.0 mg/kg/injection, schedule: Q01DX009 (ip), vehicle: saline) was 1 of 6 and the T/C (dose: 200.0 mg/kg/injection, schedule: Q01DX001 (ip), vehicle: carboxymethylcellulose (CMC)) was 107 % of control. The T/C [6] was 86 [5 of 6 alive] and 134 % of control, the survivor count (dose: 225.0 mg/kg/injection, schedule: Q01DX009 (ip), vehicle: carboxymethylcellulose (CMC)) was 3 of 6 and the T/C (dose: 300.0 mg/kg/injection, schedule: Q01DX001 (ip), vehicle: carboxymethylcellulose (CMC), evaluated on day 30) was 111 % of control. The T/C (dose: 300.0 mg/kg/injection, schedule: Q01DX001 (ip), vehicle: carboxymethylcellulose (CMC), run until all animals had died) was 145 % of control, the T/C (dose: 300.0 mg/kg/injection, schedule: Q01DX001 (ip), vehicle: saline) was 88 [5 of 6 alive] and 132 % of control and the survivor count (dose: 600.0 mg/kg/injection, schedule: Q01DX001 (ip), vehicle: Klucel (hydroxypropylcellulose) (HPC)) was 1 of 6. The T/C (dose: 800.0 mg/kg/injection, schedule: Q01DX001 (ip), vehicle: saline) was 141 % of control.
In the case of BrCCN(Cc1ccccc1)Cc1ccccc1, the T/C [2] is reported as 91 % of control, the T/C [3] is reported as 91 % of control and the T/C [4] is reported as 93 % of control.
